Assay: LA-ICPMS brain metal analysis (zinc, copper, iron) after TBI
Assay type: in vivo, mouse
Procedure: Three groups of animals were subjected to TBI as separate experiments. The first group of animals were treated daily with 2% trehalose in SSV solution at 0.1 ml per 10 g body weight via oral gavage for a period of 31 days or SSV solution following the TBI. […] The second groups of animals underwent an identical dosing procedure but were treated with either SSV or maltose as a disaccharide control for trehalose. […] A further group of animals was pre-treated with trehalose prior to TBI. These pre-treated mice received a daily treatment of 2% trehalose in SSV solution at 0.1 ml per 10 g body weight via oral gavage for 7 days prior to TBI. Following TBI, these animals received SSV solution only for the remaining duration of the experiment.
A comprehensive description of laser ablation-inductively coupled plasma mass spectrometry (LA-ICPMS) procedure of TBI mouse tissue has been previously published. Briefly, Trehalose treated and non-treated animals (n=5 per group) were euthanized at 24 hr, 72 hr, 7 day, 14 day and 28 day-post TBI surgeries. Tissue was prepared as previously described and was subjected to LA-ICPMS.
For LA-ICPMS samples, statistical analysis was carried out in Prism 7 (Graph-Pad) software. Analysis was carried out with a two-tailed t test with the level of significance set at p=0.05. For multiple comparisons two-way ANOVA was used to identify significant differences between ipsilateral and contralateral ROI's. For western blot analysis, images were produced using Image Studio Lite (version 4.0.21, LI-COR Biosciences) and subsequent statistical analysis was carried out in Prism 7 (Graph-Pad). All behavioral analysis was performed using Prism 7 (Graph-Pad).

SMILES: OC[C@H]1O[C@H](O[C@H]2O[C@H](CO)[C@@H](O)[C@H](O)[C@H]2O)[C@H](O)[C@@H](O)[C@@H]1O [trehalose]
- copper concentration (day 7, contralateral ROI3 and entire hemisphere): significant increase
- copper concentration, intra-day (day 7, ipsilateral ROI1, ROI2 and entire ipsilateral hemisphere, not observed in SSV mice): significant intra-day increases
- iron (entire contralateral hemisphere at day fourteen): significant increase
- iron (ipsilateral ROI1 at day 14, trehalose vs SSV): significant increase
- overall change in zinc concentration (treated after TBI, any region, ipsilateral or contralateral cortex, vs SSV): no significant overall change
- intra-day changes in zinc (treated after TBI, vs SSV): Neither were there any significant intra-day changes

From patent US11602538B2, “Prophylaxis and treatment of cognitive dysfunction and decline” (The Florey Institute of Neuroscience and Mental Health, priority 2017, dated 2023)
